Here are results for one substance from PMC10648572.

Chains of the proteins cited; added tags and fusions are not shown.
UniProt Q9H1X3: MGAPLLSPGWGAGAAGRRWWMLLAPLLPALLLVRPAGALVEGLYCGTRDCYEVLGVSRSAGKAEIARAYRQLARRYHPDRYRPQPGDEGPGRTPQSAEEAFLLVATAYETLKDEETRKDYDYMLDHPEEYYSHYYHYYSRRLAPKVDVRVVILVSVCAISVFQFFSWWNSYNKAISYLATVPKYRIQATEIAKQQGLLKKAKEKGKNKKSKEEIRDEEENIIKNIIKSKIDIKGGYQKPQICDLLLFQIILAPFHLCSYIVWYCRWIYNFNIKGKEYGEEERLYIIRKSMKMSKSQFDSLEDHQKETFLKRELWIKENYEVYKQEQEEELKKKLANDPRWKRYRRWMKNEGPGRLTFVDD

No constants are given. Whether binding was seen depends on the method and setting. Binding seen in cells or lysates may run through a third protein. A yes stands for co-enrichment or nearness to the bait. Other partners may have been found. Tags and fused reporters may be left off the sequences shown.

This experiment concerns the target T1, E3 ubiquitin protein ligase RING finger protein 149 (RNF149), 3×FLAG-tagged, stably overexpressed in Huh7 cells (human) (UniProt Q8NC42).
T1 sequence: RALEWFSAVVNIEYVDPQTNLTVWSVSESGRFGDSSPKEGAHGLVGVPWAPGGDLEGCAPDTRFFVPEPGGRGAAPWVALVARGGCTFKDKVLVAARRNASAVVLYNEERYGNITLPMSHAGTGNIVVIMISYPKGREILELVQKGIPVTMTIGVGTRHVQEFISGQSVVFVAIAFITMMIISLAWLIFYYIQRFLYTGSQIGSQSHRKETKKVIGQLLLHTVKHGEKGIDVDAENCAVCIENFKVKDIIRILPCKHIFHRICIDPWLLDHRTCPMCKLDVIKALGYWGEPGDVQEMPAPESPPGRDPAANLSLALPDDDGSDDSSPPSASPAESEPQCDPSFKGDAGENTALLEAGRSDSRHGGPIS
In words: affinity purification with mass spectrometry; Huh7 cells with RNF149 overexpression, 50 μM MG132 for 6 h; whole cell lysate on anti-Flag-agarose beads; SDS-PAGE, Coomassie, MS (QE-HF); compared with negative control samples.

Consider “DnaJ homolog subfamily C member 25 (DNAJC25), found in the RNF149 IP-MS from Huh7 cells (from UniProt Q9H1X3 1-360)”, for which the binding entry was “binds”.
